Assay results: patent US12595281B2, “Indodicarbocyanine phosphoramidites with bathochromically shifted absorption and emission, and tunable hydrophobicity” (The Government of the United States of America, as …, priority 2022, dated 2026)

Experiments:
[1] = Fluorescence quantum yield against TPP standard; assay type: physicochemical; conditions: in methanol, excitation 600 nm
[2] = cited from earlier work
[3] = Excited state fluorescence lifetime of dyes in methanol; assay type: physicochemical
[4] = Absorption and emission spectra of parent dyes in methanol; assay type: physicochemical; conditions: for λmax em: excited at 600 nm

Compound	ΦF (fluorescence quantum yield) [1]	ΦF of standard ([2]; in toluene)	τ (excited state fluorescence lifetime) [3] [ns]	Stokes Shift [4] [cm⁻¹]	λmax abs [4] [nm]	λmax em [4] [nm]	ΦF of standard ([2]; in MeOH)
CCCCCCOc1ccc2c(c1)C(C)(C)C(=CC=CC=CC1=[N+](CCCOC(C)=O)c3ccc(OCCCCCC)cc3C1(C)C)N2CCCOC(C)=O.[I-] [4-hex, 1,1′-bis(3-acetoxypropyl)-5,5′-bis(n-hexyloxy)-3,3,3′,3′-tetramethyldicarboindocyanine iodide]	identical	–	–	–	–	–	–
CC(=O)OCCCN1C(=CC=CC=CC2=[N+](CCCOC(C)=O)c3ccc(C(C)(C)C)cc3C2(C)C)C(C)(C)c2cc(C(C)(C)C)ccc21.[I-] [4-tBu, 1,1′-bis(3-acetoxypropyl)-5,5′-bis(tert-butyl)-3,3,3′,3′-tetramethyldicarboindocyanine iodide]	identical	–	–	–	–	–	–
C1=Cc2nc1c(-c1ccccc1)c1ccc([nH]1)c(-c1ccccc1)c1nc(c(-c3ccccc3)c3ccc([nH]3)c2-c2ccccc2)C=C1 [5,10,15,20-tetraphenylporphyrin]	–	0.07	–	–	–	–	–
COc1ccc(C(OCCCN2C(=CC=CC=CC3=[N+](CCCO)c4ccc(Cl)cc4C3(C)C)C(C)(C)c3cc(Cl)ccc32)(c2ccccc2)c2ccccc2)cc1.[I-] [Cy5-Cl, 5,5′-dichloro-1-(3-hydroxypropyl)-1′-(3-monomethoxytritylpropyl)-tetramethyl-dicarboindocyanine iodide]	0.27	–	1.11	507	648	670	–
COCCOCCOCCOc1ccc2c(c1)C(C)(C)C(=CC=CC=CC1=[N+](CCCO)c3ccc(OCCOCCOCCOC)cc3C1(C)C)N2CCCOC(c1ccccc1)(c1ccccc1)c1ccc(OC)cc1.[I-] [Cy5-Peg, 1-(3-hydroxypropyl)-1′-(3-monomethoxytritylpropyl)-5,5′-bis{2-[2-(2-methoxyethoxy)ethoxy]ethoxy}-3,3,3′,3′-tetramethyl-dicarboindocyanine iodide]	0.07	–	0.44	540	668	693	–
CCCCCCOc1ccc2c(c1)C(C)(C)C(=CC=CC=CC1=[N+](CCCO)c3ccc(OCCCCCC)cc3C1(C)C)N2CCCOC(c1ccccc1)(c1ccccc1)c1ccc(OC)cc1.[I-] [Cy5-hex, 1-(3-hydroxypropyl)-1′-(3-monomethoxytritylpropyl)-5,5′-bis(n-hexyloxy)-3,3,3′,3′-tetramethyl-dicarboindocyanine iodide]	0.07	–	0.42	619	670	699	–
COc1ccc(C(OCCCN2C(=CC=CC=CC3=[N+](CCCO)c4ccc(C(C)(C)C)cc4C3(C)C)C(C)(C)c3cc(C(C)(C)C)ccc32)(c2ccccc2)c2ccccc2)cc1.[I-] [Cy5-tBu, 1-(3-hydroxypropyl)-1′-(3-monomethoxytritylpropyl)-5,5′-bis(tert-butyl)-3,3,3′,3′-tetramethyl-dicarboindocyanine iodide]	0.21	–	0.94	541	654	678	–
oxazine 720 perchlorate	–	–	–	–	–	–	0.63

Where two headings read alike, the source gives them in different places.
